Reference: patent US8263044B2, “Stilbene like compounds as novel HDAC inhibitors” (Orchid Research Laboratories Limited, priority 2005, dated 2012)
At least one compound was matched to its structure with a doubt left.

System: HDAC activity (Mouse Liver Extract)
Experiment: Histone Deacetylase (HDAC) Inhibition Assay using Boc-Lys (Ac)-AMC Substrate
Assay type: biochemical
Conditions: mouse liver enzyme, in % (unit assumed); for HDAC Inhibition 1 μM: inhibitor at 1 μM; for HDAC Inhibition 10 μM: inhibitor at 10 μM
Protocol: Histone Deacetylase (HDAC) Inhibition Assay using Boc-Lys (Ac)-AMC Substrate: Inhibition of HDAC has been implicated to modulate transcription and to induce apoptosis or differentiation in cancer cells. The fluorometric assay provides a fast and fluorescence based method that eliminates radioactivity, extractions or chromatography, as used in traditional assays. The assay based on two steps. First, the HDAC fluorometric substrate, which comprises an acetylated lysine side chain, is incubated with a sample containing HDAC activity (Mouse Liver Extract). Deacetylation of the substrate sensitizes the substrate, in the second step; treatment with the Trypsin stop solution produces a fluorophore that can be easily analyzed using fluorescence plate reader.
Assay was done in 96 well black microplate and total volume of the assay is 100 ul. Mouse liver enzyme is diluted 1:6 with HDAC buffer. Enzyme cocktail made of 10 ul of diluted enzyme and 30 ul of HDAC buffer. 40 ul of enzyme cocktail dispensed into each well. 10 ul of different concentrations of inhibitor added in to each well, except enzyme control well. Preincubated the plate at 30° C. for 5 minutes. The HDAC reaction is started by adding 50 ul of HDAC substrate (Boc-Lys (Ac)-AMC Substrate) solution. Incubated the plate at 30° C. for 30 minutes. Adding 100 ul of Trypsin stop solution stops the reaction. The plate is incubated again at 30° C. for 20-30 minutes. The release of AMC is monitored by measuring the fluorescence at excitation wavelength of 365 or 360 nm and emission wavelength of 440 or 460 nm. Buffer and substrate alone kept for blank subtraction. (Dennis Wegener et al, Anal. Biochem, 321, 2003, 202-208).

| Structure (SMILES) | HDAC Inhibition 1 μM | HDAC Inhibition 10 μM |
| --- | --- | --- |
| O=C(CCCCCNC(=O)/C(=C\c1cc(F)cc(F)c1F)c1ccc([N+](=O)[O-])cc1)NO [Example 27, (2Z)-3-(2,3,5-Trifluorophenyl)-2-(4-nitrophenyl)-N-[6-(hydroxyamino)-6-oxohexyl]acrylamide] | 37.49 | 73.77 |
| Cc1cc(/C=C(\C(=O)NCCCCCC(=O)NO)c2ccc(F)cc2)ccc1F [Example 45, (2Z)-3-(4-Fluoro-3-methylphenyl)-2-(4-fluorophenyl)-N-[6-(hydroxyamino)-6-oxohexyl]acrylamide] | 60.17 | 95.83 |
